No constants are given. Whether binding was seen depends on the method and setting. For some assays here: Binding seen in cells or lysates may run through a third protein. Some results given as binding are weak or reduced against the parent protein; the word gives no strength.

Protein sequences, listed by entry. Tags and fused reporters are not part of them. Lines headed by an entry give the natural chain unless they say otherwise; changes in a name come on top.
UniProt O60479: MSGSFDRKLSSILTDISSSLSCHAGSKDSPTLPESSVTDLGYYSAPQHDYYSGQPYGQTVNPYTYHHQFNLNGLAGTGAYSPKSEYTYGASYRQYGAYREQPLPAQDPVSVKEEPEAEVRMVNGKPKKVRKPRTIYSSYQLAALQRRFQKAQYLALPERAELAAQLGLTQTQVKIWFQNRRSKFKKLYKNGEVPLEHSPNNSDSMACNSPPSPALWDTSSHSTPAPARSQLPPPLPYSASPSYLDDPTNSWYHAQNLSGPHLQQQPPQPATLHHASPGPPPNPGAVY
UniProt P56178: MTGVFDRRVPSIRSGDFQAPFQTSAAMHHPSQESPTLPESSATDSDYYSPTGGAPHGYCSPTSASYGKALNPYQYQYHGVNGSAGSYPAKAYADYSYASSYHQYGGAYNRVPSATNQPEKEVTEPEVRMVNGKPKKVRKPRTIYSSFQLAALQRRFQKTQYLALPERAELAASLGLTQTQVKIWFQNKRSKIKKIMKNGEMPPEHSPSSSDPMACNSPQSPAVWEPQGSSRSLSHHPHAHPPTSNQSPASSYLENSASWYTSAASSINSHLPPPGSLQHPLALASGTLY
UniProt Q8TDD2: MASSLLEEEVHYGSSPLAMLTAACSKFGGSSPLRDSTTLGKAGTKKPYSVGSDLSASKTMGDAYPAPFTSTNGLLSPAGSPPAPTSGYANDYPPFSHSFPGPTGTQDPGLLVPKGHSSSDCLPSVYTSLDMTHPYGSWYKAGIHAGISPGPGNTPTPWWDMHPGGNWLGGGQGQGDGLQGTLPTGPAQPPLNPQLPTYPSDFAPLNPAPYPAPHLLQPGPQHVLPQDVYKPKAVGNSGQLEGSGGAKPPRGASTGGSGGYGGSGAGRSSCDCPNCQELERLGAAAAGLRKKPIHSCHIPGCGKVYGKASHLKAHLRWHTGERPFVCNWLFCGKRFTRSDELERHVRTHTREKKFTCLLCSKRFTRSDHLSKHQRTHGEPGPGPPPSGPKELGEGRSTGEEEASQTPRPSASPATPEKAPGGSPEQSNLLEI

One experiment concerns the target myc-tagged DLX3 (UniProt O60479). Kind of experiment: co-IP; competition co-IP: HEK293 co-transfected with myc-DLX3 or myc-DLX5 and equal amounts of HA-wild-type SP7 and FLAG-mutant SP7, or vice versa; IP with anti-myc; blots with anti-FLAG and anti-HA.
The target in experiment [1] is myc-tagged DLX5 (UniProt P56178). The experiment is described as above.
For experiment [2] the target is unchanged. Kind of experiment: oligo co-immunoprecipitation; 200 ug nuclear extract of transfected HEK293, 100 pmol biotinylated AT-rich oligo, streptavidin magnetic particles, 4 C, 2 h; 50 mM KCl, 25 mM HEPES-KOH pH 7.7; western blot; SP7 reaches the oligo through DLX. On the technique in general: Immunoblotting shows a protein as a band on a membrane.
Experiment [3] shares this target. Kind of experiment: native gel or EMSA; 2 ug nuclear extract of transfected HEK293 (SP7 wild-type or mutant and/or DLX5), biotin-labelled AT-rich oligo probe, 12% glycerol; supershift with anti-myc or anti-FLAG; the second shift is read as DLX5-SP7-DNA complex.
Experiment [4] concerns the target FLAG-tagged S309W SP7 mutant (human) (UniProt Q8TDD2). Kind of experiment: co-IP; HEK293 co-transfected with FLAG-SP7 (wild-type or mutant) and myc-DLX3 or myc-DLX5; 48 h; IP with anti-FLAG (M2) on Dynabeads Protein G; western blot.
For experiment [5], the target named is FLAG-tagged human wild-type SP7 (human) (UniProt Q8TDD2). The description is as above.

Regarding “FLAG-tagged S309W SP7 mutant (from UniProt Q8TDD2-1 1-431)”, the binding entry with myc-tagged DLX3 is listed as “binds”. With “FLAG-tagged human wild-type SP7 (from UniProt Q8TDD2-1 1-431)”, the binding entry in the experiment with myc-tagged DLX3, in the experiment with myc-tagged DLX5 [1], with myc-tagged DLX5 [2] and in the experiment with myc-tagged DLX5 [3] was “binds” in each case. Regarding “HA-tagged mutant SP7 (S309W) (from UniProt Q8TDD2-1 1-431)”, the binding entry with myc-tagged DLX3 is given as “binds”. For the substance “HA-tagged wild-type SP7 (from UniProt Q8TDD2-1 1-431)”, the binding result with myc-tagged DLX3 and with myc-tagged DLX5 [1] was “binds” each time. For the substance “myc-tagged DLX3 (from UniProt O60479 1-287)”, the binding entry in experiment [4] and in experiment [5] was “binds” throughout. Turning to “myc-tagged DLX5 (from UniProt P56178 1-289)”, the binding result in experiment [5] was “binds”.

Values taken from paper PMC8816926.
